From PubChem BioAssay AID2417 (National Center for Advancing Translational Sciences (NCATS), 2010)
In all, about 140,000 compounds went through this assay and about 4,300 (3.1%) were called active. The shares of active, inactive and inconclusive entries below differ from those in the screen.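 Rule for the calls: active = readout at or below -70, meaning at least 70% loss of cells showing the perinucleolar compartment, a nuclear body marking cancer cells; inconclusive = readout between -30 and a set limit; inactive = the rest.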

Assay: High Content Assay for Compounds that inhibit the Assembly of the Perinucleolar Compartment;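 note: plate controls were DMSO wells for no effect and camptothecin positive control wells for full effect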
Details: PC3M PTB-GFP, PNC prevalence imaging, 16 h; at 10 µM; stronger effect = lower value
Outline: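 Compounds are pinned in duplicate onto adhered PC3M cells stably expressing GFP-tagged PTB and incubated 16 h at 37 C. Cells are then fixed, nuclei stained with Hoechst, and PNC-positive cells counted.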

Compound	activity change (PNC), negative = inhibition
C=CCc1cccc(C2Nc3ccccc3C(=O)N2O)c1O (configuration not stated)	inactive: 2.21%
CCOc1ccc2cc(C#N)c(SCC(=O)N3CCOCC3)nc2c1	inconclusive: -75.8%
Cc1ccc(O)c(-c2cc(C(=O)NCc3ccccc3)[nH]n2)c1	inactive: -13.6%
O=C(CSc1nnc(-c2cccnc2)o1)c1cc2ccccc2oc1=O	active: -99.4%
Cc1cc(N=Cc2c(O)ccc3cc(Br)ccc23)no1	inactive: 31.3%
COC(=O)C(C)Sc1ncnc2c1c(-c1ccccc1)cn2-c1ccc(OC)cc1 (configuration not stated)	inconclusive: -40.8%
OC(CN1CCN(c2ccccn2)CC1)Cn1c2ccc(Cl)cc2c2cc(Cl)ccc21 (configuration not stated)	inconclusive: -33.8%
COC(=O)CN1C(=S)N(c2ccc(Cl)cc2)C(=O)C1CC(=O)Nc1ccc(Cl)cc1 (configuration not stated)	inactive: 40.6%
Cc1nc(NS(=O)(=O)c2cccs2)c2c3c(sc2n1)CCC3	inactive: -19.3%
Cc1cc(=O)n2ccsc2n1	inactive: 7.24%
Cc1cnc(C(=O)OCC(=O)Nc2ccc(C)c(S(=O)(=O)N3CCCCC3)c2)cn1	inconclusive: -34.1%
CN(C(=O)CSc1nc2ccccc2n1CCc1ccccc1)C1CCS(=O)(=O)C1 (configuration not stated)	inconclusive: -31.5%
O=c1[nH]c2cc3c(cc2cc1CN(Cc1nnnn1C1CCCC1)C1CCCC1)OCCO3	inactive: -18.3%
CC(C)(C)C1(C)OC(C(N)=O)C(C(N)=O)O1 (configuration not stated)	inconclusive: -35.6%
Cc1ccc(OCCNC(=O)c2cccc(Oc3ccc(C(F)(F)F)cc3[N+](=O)[O-])c2)cc1	inconclusive: -48.4%
CCOC(=O)c1ccc(N2C(=O)C3CC=CCC3C2=O)cc1 (configuration not stated)	inactive: 60.3%
Cc1nc2ccc(NC(=O)N3CCCCC3)cc2nc1C	inconclusive: -65.9%
O=C(NCc1ccccc1)Oc1cccc(Cl)c1	inconclusive: -35.9%
CCC(C)NC(=O)c1n[nH]c(=O)c2ccccc12 (configuration not stated)	active: -100%

Compound	activity change (PNC), negative = inhibition
NC(=O)c1ccccc1N/C=C/C(=O)c1ccc(Cl)cc1Cl	inactive: 14.7%
CC(=O)N1CCN(c2ccc(NCc3ccc(C)s3)cc2)CC1	inconclusive: -72.8%
Cc1cc(N(CCO)CCO)nc(-n2nc(C)cc2C)n1	inactive: -17.8%
CCOC(=O)c1cccc(NC(=O)/C=C/c2ccc3c(c2)OCO3)c1	inconclusive: -67.6%
CCc1cc2c(NCC3CCCO3)nc(C)nc2s1 (configuration not stated)	inactive: -22.1%
COc1ccc(C)cc1NC(=O)CCC(=O)Nc1ccc2nc(N3CCN(C)CC3)cc(C)c2c1	inconclusive: -72.8%
Cc1ccc(S(=O)(=O)NCCNC(=O)c2ccccc2)cc1	inactive: 2.85%
CC(C)(C)c1ccc(/C=C2\Oc3cc(OC(=O)N4CCOCC4)ccc3C2=O)cc1	inconclusive: -45.5%
Cc1ccc2nsnc2c1S(=O)(=O)NCCc1c(C)[nH]c2ccc(F)cc12	inconclusive: -37.3%
CCn1cc(C(=O)O)c(=O)c2cc(F)c(N/N=C/c3ccccc3)cc21	inconclusive: -44%
O=S(=O)(Nc1cccc(C(F)(F)F)c1)c1cccnc1	inactive: 22.4%
COc1cc(-c2c(C#N)c(N)nc3c2CCCC3)cc(OC)c1OC	active: -100%
COc1ccc2[nH]c(=O)c(CN(Cc3cccs3)C(=S)Nc3cccc(C)c3)cc2c1	active: -100%
CCN1C(=O)C(O)(CC(=O)c2cc(C)ccc2C)c2ccccc21 (configuration not stated)	inactive: 11.7%
COC(=O)NNC(=O)COc1ccc2ccccc2c1Br	active: -81.6%
COc1ccc(NC(=S)NCCc2ccc(Cl)cc2)c(OC)c1	inactive: 8.25%
COC(=O)C(C)(C)ONC(=O)Nc1ccccc1Br	inactive: -9.71%
Cn1c(=O)[nH]c(=O)c2c1nc(CN1CCOCC1)n2CCc1ccccc1	inconclusive: -42.1%
CC(c1ccco1)N(C(=O)C12CC3CC(CC(C3)C1)C2)c1ccccn1 (configuration not stated)	inconclusive: -41%

Molecules shown so far with a CF3 group (two):
Compound	activity change (PNC), negative = inhibition
Cc1ccc(OCCNC(=O)c2cccc(Oc3ccc(C(F)(F)F)cc3[N+](=O)[O-])c2)cc1	inconclusive: -48.4%
O=S(=O)(Nc1cccc(C(F)(F)F)c1)c1cccnc1	inactive: 22.4%

Continued:

Compound	activity change (PNC), negative = inhibition
Cc1cc(C)c(S(=O)(=O)n2cnc3ccccc32)c(C)c1	inconclusive: -72.8%
CCOC(=O)c1c(CSC(=N)N)n(-c2ccc(Br)cc2)c2cc(Br)c(OC(C)=O)cc12	inactive: 29.9%
Cc1ccc2cc(CCNC(=O)c3ccc(C)c([N+](=O)[O-])c3)c(=O)[nH]c2c1	inactive: 13.5%
Cc1cccc(NC(=O)CSc2nc(C)c(CC(=O)c3ccc(Br)cc3)c(C)c2C#N)c1C	inactive: -27.5%
CC1=CC(C)(C)N2C(=O)C3(SCC(=O)N3c3ccc(O)cc3)c3cc(C)cc1c32 (configuration not stated)	inconclusive: -51.1%
CCN1CCc2c(C#N)c(N3CCOCC3)nc(N3CCOCC3)c2C1	inconclusive: -57.5%
COc1ccccc1CNC(=O)C1CC(=O)N(c2ccc(C)c(C)c2)C1 (configuration not stated)	active: -80.7%
Cc1ccc(-c2cn(-c3ccc(SC(F)F)cc3)c3[n+]2CCC3)cc1	inconclusive: -75.4%
CCc1nnc(NC(=O)c2ccc(Cl)c(S(=O)(=O)N3CCc4ccccc4C3)c2)s1	inactive: -0.513%
Cn1c(=O)c2c(nc(SCc3ccccc3)n2Cc2ccc(Cl)cc2)n(C)c1=O	inactive: -27%
CCOC(=O)c1[nH]c2ccc(OC)cc2c1NC(=O)CCN1CCSCC1	inconclusive: -55.5%
Cc1cc2cc(CNC(=O)c3ccc(S(=O)(=O)N4CCCC4)cc3)ccc2n1C	inconclusive: -31.5%
Cc1ccc(S(=O)(=O)Nc2ccccc2C(N)=O)cc1	inconclusive: -48.6%
COc1ccc(NC(=O)c2cc3c(=O)n(C)c4ccccc4c3n2C)cc1OC	inactive: -4.86%
O=C(NCc1cccnc1)C(=O)NCC(c1ccco1)N1CCN(c2ccc(F)cc2)CC1 (configuration not stated)	inconclusive: -59.6%
Cc1c(C#N)c2ccccc2n1CC(=O)N1CCCc2ccccc21	inconclusive: -47.1%
Cc1cnc(C(=O)OCC(=O)NC(=O)NC(C)C)cn1	inconclusive: -43.6%
CC(C)c1ccc(NC(=O)NC2CCCCC2)cc1	inconclusive: -39.3%
CCOC(=O)C(CC)Sc1ncnc2c1nnn2-c1ccc(F)cc1 (configuration not stated)	inconclusive: -54.4%
